# Earlier results in paper PMC9321930, “Modelling the Human Blood–Brain Barrier in Huntington Disease” (International Journal of Molecular Sciences, 2022).
# Settings: Table S4; cited from earlier work
compound,measurement,value
CC(C)NCC(O)COc1ccc(CC(N)=O)cc1 (stereo not shown) [atenolol],"Human Kp,uu,CSF",0.18
